{"sequences": {"note": "Amino acid sequences for entries named in this document (tags omitted). A change or cut given only in a name is not applied to a line headed by its entry.", "UniProt P08648": "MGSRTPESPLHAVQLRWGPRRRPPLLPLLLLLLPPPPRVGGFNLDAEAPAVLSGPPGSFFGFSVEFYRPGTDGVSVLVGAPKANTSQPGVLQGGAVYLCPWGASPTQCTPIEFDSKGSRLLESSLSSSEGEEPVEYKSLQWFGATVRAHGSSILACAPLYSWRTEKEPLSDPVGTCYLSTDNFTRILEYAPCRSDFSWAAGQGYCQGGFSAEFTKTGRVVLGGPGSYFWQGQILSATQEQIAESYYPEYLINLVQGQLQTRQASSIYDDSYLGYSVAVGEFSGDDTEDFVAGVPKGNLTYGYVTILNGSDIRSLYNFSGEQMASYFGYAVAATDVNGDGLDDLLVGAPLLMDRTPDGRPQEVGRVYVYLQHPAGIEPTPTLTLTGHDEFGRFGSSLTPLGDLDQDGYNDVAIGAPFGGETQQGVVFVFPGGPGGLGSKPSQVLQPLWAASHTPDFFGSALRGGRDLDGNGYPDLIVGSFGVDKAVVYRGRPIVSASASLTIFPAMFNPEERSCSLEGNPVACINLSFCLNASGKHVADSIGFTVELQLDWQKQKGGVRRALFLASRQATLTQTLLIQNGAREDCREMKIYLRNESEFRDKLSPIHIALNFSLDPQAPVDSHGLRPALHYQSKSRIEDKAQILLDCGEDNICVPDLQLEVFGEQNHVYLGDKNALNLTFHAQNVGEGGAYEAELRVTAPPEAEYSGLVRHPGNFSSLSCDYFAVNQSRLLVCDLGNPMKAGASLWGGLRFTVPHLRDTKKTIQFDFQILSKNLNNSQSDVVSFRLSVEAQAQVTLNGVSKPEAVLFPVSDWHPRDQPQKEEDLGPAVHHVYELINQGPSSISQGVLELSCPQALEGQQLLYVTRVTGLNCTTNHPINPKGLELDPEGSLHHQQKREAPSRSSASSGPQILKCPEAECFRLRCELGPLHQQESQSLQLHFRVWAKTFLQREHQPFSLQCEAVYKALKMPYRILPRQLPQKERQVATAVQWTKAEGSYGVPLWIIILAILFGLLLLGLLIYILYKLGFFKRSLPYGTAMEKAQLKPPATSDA"}, "source": "patent US20100168025A1", "about": "(TEXAS A AND M UNIVERSITY SYSTEM, published 2010)", "binders": {"B1": {"name": "perlecan Domain V (recombinant, C-terminal 6×His tag) (ligand)", "chain": "EIKITFRPDSADGMLLYNGQKRVPGSPTNLANRQPDFISFGLVGGRPEFRFDAGSGMATIRHPTPLALGHFHTVTLLRSLTQGSLIVGDLAPVNGTSQGKFQGLDLNEELYLGGYPDYGAIPKAGLSSGFIGCVRELRIQGEEIVFHDLNLTAHGISHCPTCRDRPCQNGGQCHDSESSSYVCVCPAGFTGSRCEHSQALHCHPEACGPDATCVNRPDGRGYTCRCHLGRSGLRCEEGVTVTTPSLSGAGSYLALPALTNTHHELRLDVEFKPLAPDGVLLFSGGKSGPVEDFVSLAMVGGHLEFRYELGSGLAVLRSAEPLALGRWHRVSAERLNKDGSLRVNGGRPVLRSSPGKSQGLNLHTLLYLGGVEPSVPLSPATNMSAHFRGCVGEVSVNGKRLDLTYSFLGSQGIGQCYDSSPCERQPCQHGATCMPAGEYEFQCLCRDGFKGDLCEHEENPCQLREPCLHGGTCQGTRCLCLPGFSGPRCQQGSGHGIAESDWHLEGSGGNDAPGQYGAYFHDDGFLAFPGHVFSRSLPEVPETIELEVRTSTASGLLLWQGVEVGEAGQGKDFISLGLQDGHLVFRYQLGSGEARLVSEDPINDGEWHRVTALREGRRGSIQVDGEELVSGRSPGPNVAVNAKGSVYIGGAPDVATLTGGRFSSGITGCVKNLVLHSARPGAPPPQPLDLQHRAQAGANTRPCPSHHHHHH", "notes": "domain: domain V; Secreted from transfected 293FT cells and purified on Ni beads; also called DV; endorepellin"}}, "target": "A5 domain (immobilized acceptor on the IAsys biosensor) (UniProt P08648)", "assay": "optical biosensor (IAsys), A5 immobilized", "note": "No constants are given. Whether binding was seen depends on the method and setting. Binding calls can cover weak binding; strength is not graded here.", "data": [{"binder": "B1", "values": [{"measurement": "binding", "result": "binds"}]}]}
